According to patent publication US20260002121A1, “IMPROVED METHODS OF PREPARING DIFFERENT MESODERM CELL TYPES” (Children's Hospital Medical Center, priority 2021, published 2026):
At least one compound was matched to its structure with a doubt left.

Columns and labels:
[1] = test system: hPSC-derived lateral plate mesoderm / splanchnic mesoderm cultures; test: RT-PCR of marker genes in hPSC-derived lateral plate/splanchnic mesoderm cultures (Example 9); assay type: cell-based, human; details: added to lpm differentiation media on days 2-4
Protocol: Differentiation of hPSCs into lateral plate mesoderm was induced using previously described methods with modifications. In brief, partially confluent hPSCs were dissociated into very fine clumps in Accutase (Invitrogen) and passaged 1:18 onto new Geltrex-coated 24-well plates for immunocytochemistry and 12-well plates for RNA preparation in mTeSR1 with 1 μM thiazovivin (Tocris) ([…]). Next day, a brief wash with DMEM/F12 was followed with Day 0 medium (30 ng/mL Activin A (Cell Guidance Systems), 40 ng/mL. BMP4 (R&D Systems), 6 μM CHIR99021 (Tocris), 20 ng/mL FGF2 (Thermo Fisher), 100 nM PIK90 (EMD Millipore)) for 24 hours. A basal media composed of Advanced DMEM/F12, N2, B27, 15 mM HEPES, 2 mM […], penicillin-streptomycin was used for this Day 0 medium and all subsequent differentiations. On Day 1, a brief wash with DMEM/F12 was followed with Day 1 medium (1 μM A83-01 (Tocris), 30 ng/mL BMP4, 1 μM C59 (Cellagen Technology)) for 24 hours. For cardiac mesoderm generation, cells were cultured in 1 μM A83-01, 30 ng/mL BMP4, 1 μM C59, 20 ng/mL FGF2 from Day 2 to Day 4 (medium changed every day). From Day 4, cells were cultured in 200 μg/mL 2-phospho-ascorbic acid (Sigma), 1 μM XAV939 (Sigma), 30 ng/mL BMP4 for 3 days. […] Significance was determined by one-way ANOVA, followed by Tukey's test.

[2] = test system: hPSC-derived mesoderm; test: Quantitative RT-PCR gene expression of differentiating mesoderm (Example 11); assay type: cell-based, human; details: Day 4 SpM
Protocol: Total RNA was prepared from differentiating human ES cells by using Nucleospin kit according to manufacturer's protocol. Reverse transcription PCR was performed by Superscript VILO cDNA synthesis kit. QuantStudio 5 and 6 were used for qPCR analyses. Statistics were performed with PRISM8 (GraphPad Software). Significance was determined by one-way ANOVA, followed by Tukey's test.
After SpM differentiation, the cells can be observed with an inverted microscope. The cells should be at 100% confluency (FIG. 9A). The efficiency of SpM induction can be checked by immunostaining for FOXF1 and/or ISL1, or expression of relative gene profiles as provided in Table 1.
The efficiency of organ-specific mesoderm differentiation can be checked by immunostaining for WT1, PITX1, FOXF1, NKX6.1, and/or TBX5, or expression of relative gene profiles as provided in Table 1.

CC1=C(/C=C/C(C)=C/C=C/C(C)=C/C(=O)O)C(C)(C)CCC1 [RA, retinoic acid] was tested, and the “SM markers FOXF1, HOXA1, HOXA5, and WNT2” value [1] was “promoted”, the “cardiac markers NKX2-5, ISL1 and TBX20” value [1] was “down-regulated” and the “lineage shift, expression of RA-responsive genes HOXA5 and CYP26A1” value [2] was “shift from cardiac to visceral mesoderm”.
